Test results: the supplement of paper PMC10849652
This is one part of the list.

Protein sequences, listed by entry. Tags and fused reporters are not part of them. Lines headed by an entry give the natural chain unless they say otherwise; changes in a name come on top.
UniProt O95260: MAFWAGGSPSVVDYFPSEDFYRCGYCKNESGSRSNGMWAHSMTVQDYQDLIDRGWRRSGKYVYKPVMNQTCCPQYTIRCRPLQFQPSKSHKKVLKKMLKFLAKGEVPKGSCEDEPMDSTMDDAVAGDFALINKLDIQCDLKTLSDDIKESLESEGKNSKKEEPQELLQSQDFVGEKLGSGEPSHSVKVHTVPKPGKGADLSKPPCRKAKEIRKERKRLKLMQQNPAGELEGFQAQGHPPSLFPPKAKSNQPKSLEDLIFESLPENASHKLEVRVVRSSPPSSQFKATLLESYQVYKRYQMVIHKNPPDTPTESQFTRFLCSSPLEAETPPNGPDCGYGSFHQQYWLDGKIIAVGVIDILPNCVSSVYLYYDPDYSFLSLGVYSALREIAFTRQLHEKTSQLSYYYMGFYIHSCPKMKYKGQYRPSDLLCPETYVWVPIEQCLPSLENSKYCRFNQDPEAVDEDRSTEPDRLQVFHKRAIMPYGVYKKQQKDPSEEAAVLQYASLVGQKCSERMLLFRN
UniProt Q9H0Y0: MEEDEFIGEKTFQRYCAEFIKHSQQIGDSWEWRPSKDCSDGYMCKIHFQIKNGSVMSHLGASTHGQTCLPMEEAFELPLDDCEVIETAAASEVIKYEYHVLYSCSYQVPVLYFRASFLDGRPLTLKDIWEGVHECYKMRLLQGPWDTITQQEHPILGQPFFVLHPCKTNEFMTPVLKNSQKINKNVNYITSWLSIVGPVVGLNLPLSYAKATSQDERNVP
UniProt Q9H1I8: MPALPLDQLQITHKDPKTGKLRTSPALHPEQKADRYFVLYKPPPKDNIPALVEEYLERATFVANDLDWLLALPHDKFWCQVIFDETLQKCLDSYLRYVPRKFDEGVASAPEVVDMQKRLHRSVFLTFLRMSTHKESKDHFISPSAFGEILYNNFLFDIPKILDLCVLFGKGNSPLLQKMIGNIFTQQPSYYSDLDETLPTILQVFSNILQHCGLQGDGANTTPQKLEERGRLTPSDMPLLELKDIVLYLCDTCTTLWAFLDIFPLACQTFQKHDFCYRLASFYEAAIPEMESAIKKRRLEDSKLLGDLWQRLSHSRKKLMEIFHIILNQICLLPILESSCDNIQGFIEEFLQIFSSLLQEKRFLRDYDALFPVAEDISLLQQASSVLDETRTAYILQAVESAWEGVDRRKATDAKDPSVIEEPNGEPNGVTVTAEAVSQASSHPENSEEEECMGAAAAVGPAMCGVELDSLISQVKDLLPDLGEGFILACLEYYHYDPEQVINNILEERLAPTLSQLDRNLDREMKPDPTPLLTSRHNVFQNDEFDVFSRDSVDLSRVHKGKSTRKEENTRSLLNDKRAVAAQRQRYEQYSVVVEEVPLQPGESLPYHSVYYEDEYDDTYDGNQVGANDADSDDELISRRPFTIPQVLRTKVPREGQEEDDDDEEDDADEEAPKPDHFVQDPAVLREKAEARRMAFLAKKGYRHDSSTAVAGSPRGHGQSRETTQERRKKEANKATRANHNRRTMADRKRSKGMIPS
UniProt Q8WYN0: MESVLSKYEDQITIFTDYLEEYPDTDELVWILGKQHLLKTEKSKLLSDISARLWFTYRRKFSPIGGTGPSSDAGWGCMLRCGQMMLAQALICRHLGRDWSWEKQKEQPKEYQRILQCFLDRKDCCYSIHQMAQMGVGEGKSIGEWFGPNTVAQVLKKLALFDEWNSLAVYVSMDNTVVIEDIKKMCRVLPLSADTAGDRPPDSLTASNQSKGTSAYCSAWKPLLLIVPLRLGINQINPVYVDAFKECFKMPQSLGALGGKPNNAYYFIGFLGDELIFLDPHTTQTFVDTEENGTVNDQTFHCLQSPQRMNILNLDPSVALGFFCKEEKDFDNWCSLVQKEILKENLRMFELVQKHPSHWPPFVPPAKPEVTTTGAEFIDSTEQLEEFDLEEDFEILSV
UniProt P49407: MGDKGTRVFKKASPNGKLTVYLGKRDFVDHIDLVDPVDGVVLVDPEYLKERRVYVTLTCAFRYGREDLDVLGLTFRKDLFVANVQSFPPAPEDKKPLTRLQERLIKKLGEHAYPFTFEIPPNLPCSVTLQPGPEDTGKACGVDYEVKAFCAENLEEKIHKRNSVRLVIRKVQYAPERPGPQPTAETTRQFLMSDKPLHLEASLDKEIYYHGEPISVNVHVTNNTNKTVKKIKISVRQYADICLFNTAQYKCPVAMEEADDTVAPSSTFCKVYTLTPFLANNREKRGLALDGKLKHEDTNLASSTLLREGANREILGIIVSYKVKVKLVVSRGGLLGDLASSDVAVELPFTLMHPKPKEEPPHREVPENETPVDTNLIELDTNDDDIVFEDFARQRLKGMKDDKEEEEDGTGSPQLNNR
UniProt Q6VMQ6: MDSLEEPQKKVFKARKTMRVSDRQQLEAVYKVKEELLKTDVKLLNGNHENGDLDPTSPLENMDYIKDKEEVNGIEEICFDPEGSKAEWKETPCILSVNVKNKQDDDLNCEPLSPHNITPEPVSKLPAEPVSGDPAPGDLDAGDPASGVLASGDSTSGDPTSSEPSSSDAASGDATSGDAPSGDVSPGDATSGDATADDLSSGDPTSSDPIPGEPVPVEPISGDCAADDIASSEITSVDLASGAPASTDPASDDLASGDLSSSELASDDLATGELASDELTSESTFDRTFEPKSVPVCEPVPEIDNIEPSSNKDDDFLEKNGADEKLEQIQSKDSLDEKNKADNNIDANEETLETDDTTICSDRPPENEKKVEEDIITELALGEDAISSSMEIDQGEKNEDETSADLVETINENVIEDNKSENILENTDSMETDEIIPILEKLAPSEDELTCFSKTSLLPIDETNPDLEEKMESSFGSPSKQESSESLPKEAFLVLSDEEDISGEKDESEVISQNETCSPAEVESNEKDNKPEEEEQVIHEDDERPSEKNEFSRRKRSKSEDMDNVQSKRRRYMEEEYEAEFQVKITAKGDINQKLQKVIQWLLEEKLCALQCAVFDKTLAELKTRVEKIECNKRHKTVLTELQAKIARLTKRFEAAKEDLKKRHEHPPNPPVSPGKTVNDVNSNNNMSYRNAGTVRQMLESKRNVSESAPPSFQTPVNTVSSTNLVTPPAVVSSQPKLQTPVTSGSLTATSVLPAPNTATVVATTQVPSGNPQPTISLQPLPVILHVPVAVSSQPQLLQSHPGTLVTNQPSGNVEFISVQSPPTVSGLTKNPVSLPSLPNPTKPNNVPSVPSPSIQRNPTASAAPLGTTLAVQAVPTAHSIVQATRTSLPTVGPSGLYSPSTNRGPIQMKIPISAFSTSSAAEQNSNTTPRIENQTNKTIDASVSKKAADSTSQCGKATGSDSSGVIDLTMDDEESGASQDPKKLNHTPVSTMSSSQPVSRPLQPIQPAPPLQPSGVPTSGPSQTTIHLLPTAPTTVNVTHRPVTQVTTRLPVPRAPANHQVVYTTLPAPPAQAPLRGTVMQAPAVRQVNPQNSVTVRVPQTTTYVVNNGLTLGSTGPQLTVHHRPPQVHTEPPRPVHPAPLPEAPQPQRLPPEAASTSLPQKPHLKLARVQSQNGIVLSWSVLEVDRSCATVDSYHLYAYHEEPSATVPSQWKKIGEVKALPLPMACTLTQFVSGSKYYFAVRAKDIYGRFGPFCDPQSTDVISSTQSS
UniProt P14415, whole entry, looked up: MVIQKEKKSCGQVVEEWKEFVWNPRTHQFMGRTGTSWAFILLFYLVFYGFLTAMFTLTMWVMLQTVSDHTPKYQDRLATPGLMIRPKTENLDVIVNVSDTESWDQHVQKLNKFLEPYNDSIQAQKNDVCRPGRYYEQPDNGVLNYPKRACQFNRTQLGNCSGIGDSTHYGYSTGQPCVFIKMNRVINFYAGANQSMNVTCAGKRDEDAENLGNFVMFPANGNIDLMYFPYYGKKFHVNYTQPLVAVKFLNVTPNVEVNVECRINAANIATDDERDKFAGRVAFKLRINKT

Legend:
Assay in all cases: log2 fold change, soluble protein after heating vs DMSO (PISA); higher = thermal stabilisation; K562 cells, 10 uM, 30 min; active = over 0.2 and 3.5 SD of the protein, either way, in both replicates (recomputed)
[1] = compound: CC[C@@H]1C(=O)N(C)c2cnc(Nc3ccc(C(=O)NC4CCN(C)CC4)cc3OC)nc2N1C1CCCC1
Method in brief: (§1)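 Soluble protein was quantified by TMTpro 16plex LC-MS/MS after channel sums were equalised. It was obtained as the supernatant after 21,000xg for 90 min from pooled aliquots of K562 cells (2×10^6 cells/mL, 10 μM compound, 30 min) heated for 3 min across 48°C-58°C and extracted in PBS with 0.5% NP-40 at 4°C. Thermal stability values are relative to control samples and come from duplicates. They are given as log2 fold changes.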

[2] = compound: CC[C@@H]1C(=O)N(C)c2cnc(Nc3ccc(C(=O)N[C@H]4CC[C@H](N5CCN(CC6CC6)CC5)CC4)cc3OC)nc2N1C(C)C [volasertib]
Method in brief: as §1

[3] = compound: CC[C@H](C)[C@@H](C(=O)N[C@@H]([C@@H](C)O)C(=O)N[C@@H](CC(C)C)C(=O)[C@]1(CO1)C)NC(=O)[C@H]([C@@H](C)CC)N(C)C(=O)C [epoxomicin]
Method in brief: as §1

[4] = compound: CN(C)CC(=O)Nc1ccc2[nH]c(=O)c3ccccc3c2c1
Method in brief: as §1

[5] = compound: CN1C2=C(C3=C1C(=O)N(N=C3)CC4=CC(=CC=C4)N)SC(=C2)S(=O)C
Method in brief: as §1

[6] = compound: CN1CCN(CCOc2cc(OC3CCOCC3)c3c(Nc4c(Cl)ccc5c4OCO5)ncnc3c2)CC1 [saracatinib]
Method in brief: as §1

[7] = compound: CN1CC[C@H](c2c(O)cc(O)c3c(=O)cc(-c4ccccc4Cl)oc23)[C@H](O)C1 [alvocidib]
Method in brief: as §1

[8] = compound: CN1CCc2c(c3ccccc3n2Cc2ccc(C(=O)NO)cc2)C1 [Tubastatin A]
Method in brief: as §1

[9] = compound: CNC(=O)c1ccc(Nc2ncc(C(F)(F)F)c(NCc3nccnc3N(C)S(C)(=O)=O)n2)cc1 [defactinib]
Method in brief: as §1

[10] = compound: CNCc1ccc(-c2[nH]c3cc(F)cc4c3c2CCNC4=O)cc1 [rucaparib]
Method in brief: as §1

[11] = compound: CNc1nc(-c2ccc3c(N)n[nH]c3c2)cc(N2C[C@@H](C(=O)NC3CCCCC3)CC[C@H]2C)n1
Method in brief: as §1

[12] = compound: COC(=O)N[C@@H](C)CNc1nccc(-c2cn(C(C)C)nc2-c2cc(Cl)cc(NS(C)(=O)=O)c2F)n1 [encorafenib]
Method in brief: as §1

[13] = compound: COC(=O)[C@H](CCSC)NC(=O)C1=C(C=C(C=C1)NC[C@H](CS)N)C2=CC=CC=C2
Method in brief: as §1

[14] = compound: CC[C@H](C)N1C=C(C2=C(C=C(C=C21)C3=CN=C(C=C3)N4CCNCC4)C(=O)NCC5=C(C=C(NC5=O)C)C)C
Method in brief: as §1

[15] = compound: CCn1c(C(=O)N(C2CC2)C2CC2)cc2c3c(ncn3C)c(Nc3cc(C)n(C)n3)nc21
Method in brief: as §1

[16] = compound: CCn1cc(-c2ccnc3[nH]c(-c4cccc(CN(C)C)c4)cc23)c(-c2ccc(NC(=O)N(C)C)cc2)n1
Method in brief: as §1

[17] = compound: CN(CCOC1=CC=C(C=C1)C[C@H]2C(=O)NC(=O)S2)C3=CC=CC=N3 (racemic) [rosiglitazone]
Method in brief: as §1

[18] = compound: CN1CCC(CNc2ccc3ncc(-c4cccc(OC(F)(F)F)c4)n3n2)CC1
Method in brief: as §1

[19] = compound: CNC(=O)C1=CC=CC=C1NC2=NC(=NC=C2Cl)NC3=C(C=C(C=C3)N4CCOCC4)OC
Method in brief: as §1

[20] = compound: CN1CCN(c2nc(C3=C(c4c[nH]c5ccccc45)C(=O)NC3=O)c3ccccc3n2)CC1 [sotrastaurin]
Method in brief: as §1

Measured: log2 fold change

ATE1 (UniProt O95260)
inactive: [1] 0.05 | [2] 0.022 | [3] 0.07 | [4] 0.098 | [5] 0.258 | [6] 0.105 | [7] 0.058 | [8] -0.296 | [9] -0.219 | [10] 0.068 | [11] -0.04 | [12] -0.18 | [13] 0.103

ATG10 (UniProt Q9H0Y0)
inactive: [14] -0.014 | [3] -0.018 | [15] -0.087 | [16] -0.01 | [4] -0.366 | [17] -0.132 | [18] -0.563 | [8] -0.175 | [19] -0.141 | [9] 0.042 | [13] 0

ASCC2 (UniProt Q9H1I8)
inactive: [1] 0.018 | [3] 0.027 | [15] -0.049 | [4] -0.098 | [5] 0.186 | [6] -0.094 | [20] -0.275 | [7] 0.243 | [19] -0.124 | [9] 0.104 | [10] 0.097 | [11] 0.045 | [12] -0.071 | [13] 0.24

ATG4A (UniProt Q8WYN0)
inactive: [4] 0.034 | [7] -0.033 | [9] -0.053 | [13] -0.007

Quoted from the results shown (2 entries):
ATE1 (UniProt O95260)
inactive: [1] 0.05 | [2] 0.022 | [3] 0.07 | [4] 0.098 | [5] 0.258 | [6] 0.105 | [7] 0.058 | [8] -0.296 | [9] -0.219 | [10] 0.068 | [11] -0.04 | [12] -0.18 | [13] 0.103

ATG10 (UniProt Q9H0Y0)
inactive: [14] -0.014 | [3] -0.018 | [15] -0.087 | [16] -0.01 | [4] -0.366 | [17] -0.132 | [18] -0.563 | [8] -0.175 | [19] -0.141 | [9] 0.042 | [13] 0

Later entries.

ARRB1 isoform 2 (UniProt P49407)
inactive: [1] -0.051 | [2] 0.02 | [15] 0.026 | [16] -0.09 | [4] 0.062 | [17] -0.02 | [5] 0.044 | [18] -0.086 | [6] 0.05 | [7] 0.145 | [8] -0.071 | [19] -0.105 | [9] -0.11 | [10] -0.052 | [11] -0.116 | [12] 0.035 | [13] 0.06

ATP1A2 (UniProt P50993)
inactive: [5] -0.377 | [6] -0.238 | [11] -0.246

ATF7IP isoform 4 (UniProt Q6VMQ6)
inactive: [14] -0.259 | [3] 0.137 | [15] -0.02 | [16] 0.024 | [4] 0.132 | [17] 0.017 | [18] -0.088 | [7] -0.046 | [8] -0.031 | [19] 0.002 | [9] -0.106 | [13] -0.087

ATP1B2 (UniProt P14415)
inactive: [1] -0.009 | [2] -0.034 | [3] -0.109 | [15] 0.035 | [16] -0.002 | [4] 0.044 | [17] 0 | [5] -0.004 | [18] 0.004 | [6] -0.083 | [20] -0.003 | [7] 0.121 | [8] -0.018 | [19] -0.114 | [9] -0.104 | [10] -0.012 | [11] -0.066 | [12] -0.022 | [13] 0.006

ATP1B1 (UniProt P05026)
inactive: [1] 0.094 | [2] 0.006 | [14] 0.034 | [15] 0.019 | [16] -0.067 | [4] 0.001 | [17] 0.037 | [5] -0.042 | [18] 0.089 | [6] -0.032 | [20] 0.037 | [7] -0.066 | [8] 0.012 | [19] -0.125 | [9] -0.148 | [10] -0.031 | [11] -0.015 | [12] -0.088 | [13] -0.039
